PubChem BioAssay AID504764 – Drosophila RNAi Screening Center | 2011
The deposit covers about 22,000 reagents; below is an unselected part of those with a known target gene and a result. In the full data, 403 (1.9%) were called active. 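Unnormalised raw counts per well; ratio z-scores behind the hit calls and whether each hit raises or lowers signal are not deposited.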 A plus sign joins genes that one reagent is predicted to hit. The record does not give: the amount of reagent.

Assay: 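Genome-wide screen for regulators of Notch-driven gene expression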 (primary screen)
Cell system: Drosophila Kc167 cells
Reagent: long dsRNA against Drosophila genes
Timing: about 5 days (4 days dsRNA, then 24 h after transfection)
Treatment: transfection of constitutively active membrane-tethered Notch lacking the extracellular domain, read 24 h later
Measurement: 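Firefly luciferase from an E(spl)m3 reporter with active Notch, plus control-promoter and uninduced reporter wells for normalisation; unnormalised counts, duplicate wells a and b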
Reading the numbers: induced reporter light, run 1, well a and induced reporter light, run 1, well b: higher = more light from the Notch target reporter with active Notch; control promoter light, run 1, well a and control promoter light, run 1, well b: higher = more light from the viral control promoter (cell number, transfection, viability); uninduced reporter light, run 1, well a: higher = more light from the Notch target reporter without active Notch
Hit rule: 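Wells with low control signal or poorly matching duplicates excluded; duplicates averaged; per source plate, z beyond ±2 for induced/control log2 ratio or beyond ±1.8 for induced/uninduced marks a hit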
Calls: active = modifier hit (raised or lowered Notch signal); inactive = not a hit

{"predicted target": "CG14740", "amplicon": "DRSC14960", "induced reporter light, run 1, well a": 1.04e5, "induced reporter light, run 1, well b": 1.28e5, "control promoter light, run 1, well a": 85805, "control promoter light, run 1, well b": 80300, "uninduced reporter light, run 1, well a": 9165, "outcome": "inactive"}
{"predicted target": "Axn", "amplicon": "DRSC14120", "induced reporter light, run 1, well a": 36815, "induced reporter light, run 1, well b": 36800, "control promoter light, run 1, well a": 40455, "control promoter light, run 1, well b": 46510, "uninduced reporter light, run 1, well a": 3605, "outcome": "inactive"}
{"predicted target": "CG14257", "amplicon": "DRSC14752", "induced reporter light, run 1, well a": 1.57e5, "induced reporter light, run 1, well b": 1.39e5, "control promoter light, run 1, well a": 1.63e5, "control promoter light, run 1, well b": 1.81e5, "uninduced reporter light, run 1, well a": 11015, "outcome": "inactive"}
{"predicted target": "CTCF", "amplicon": "DRSC11004", "induced reporter light, run 1, well a": 1.07e5, "induced reporter light, run 1, well b": 1.24e5, "control promoter light, run 1, well a": 1.03e5, "control promoter light, run 1, well b": 53275, "uninduced reporter light, run 1, well a": 11790, "outcome": "inactive"}
{"predicted target": "CG18178", "amplicon": "DRSC10302", "induced reporter light, run 1, well a": 1.59e5, "induced reporter light, run 1, well b": 1.52e5, "control promoter light, run 1, well a": 1.08e5, "control promoter light, run 1, well b": 82785, "uninduced reporter light, run 1, well a": 12950, "outcome": "inactive"}
{"predicted target": "Fign", "amplicon": "DRSC00592", "induced reporter light, run 1, well a": 2.09e5, "induced reporter light, run 1, well b": 2.08e5, "control promoter light, run 1, well a": 2.69e5, "control promoter light, run 1, well b": 2.82e5, "uninduced reporter light, run 1, well a": 19700, "outcome": "inactive"}

2 entries from above, set out differently.
predicted target	amplicon	induced reporter light, run 1, well a	induced reporter light, run 1, well b	control promoter light, run 1, well a	control promoter light, run 1, well b	uninduced reporter light, run 1, well a	outcome
CG14740	DRSC14960	1.04e5	1.28e5	85805	80300	9165	inactive
Axn	DRSC14120	36815	36800	40455	46510	3605	inactive

More records follow.
{"predicted target": "Arl6", "amplicon": "DRSC07031", "induced reporter light, run 1, well a": 1.06e5, "induced reporter light, run 1, well b": 96065, "control promoter light, run 1, well a": 92550, "control promoter light, run 1, well b": 87580, "uninduced reporter light, run 1, well a": 7515, "outcome": "inactive"}
{"predicted target": "CG15841 (retired record) + Acp33A", "amplicon": "DRSC01859", "induced reporter light, run 1, well a": 1.17e5, "induced reporter light, run 1, well b": 1.26e5, "control promoter light, run 1, well a": 74380, "control promoter light, run 1, well b": 99455, "uninduced reporter light, run 1, well a": 16800, "outcome": "inactive"}
{"predicted target": "Trf2", "amplicon": "DRSC18727", "induced reporter light, run 1, well a": 1.53e5, "induced reporter light, run 1, well b": 2.12e5, "control promoter light, run 1, well a": 5.02e5, "control promoter light, run 1, well b": 5.23e5, "uninduced reporter light, run 1, well a": 14628, "outcome": "active"}
{"predicted target": "ds", "amplicon": "DRSC00815", "induced reporter light, run 1, well a": 93235, "induced reporter light, run 1, well b": 1.24e5, "control promoter light, run 1, well a": 94405, "control promoter light, run 1, well b": 64745, "uninduced reporter light, run 1, well a": 9065, "outcome": "inactive"}
{"predicted target": "CG10418", "amplicon": "DRSC09720", "induced reporter light, run 1, well a": 82175, "induced reporter light, run 1, well b": 59910, "control promoter light, run 1, well a": 55635, "control promoter light, run 1, well b": 51735, "uninduced reporter light, run 1, well a": 3640, "outcome": "active"}
{"predicted target": "NHP2", "amplicon": "DRSC11229", "induced reporter light, run 1, well a": 1.44e5, "induced reporter light, run 1, well b": 1.48e5, "control promoter light, run 1, well a": 2.77e5, "control promoter light, run 1, well b": 2.23e5, "uninduced reporter light, run 1, well a": 10405, "outcome": "inactive"}
{"predicted target": "Ir76a", "amplicon": "DRSC10987", "induced reporter light, run 1, well a": 1.50e5, "induced reporter light, run 1, well b": 1.41e5, "control promoter light, run 1, well a": 83370, "control promoter light, run 1, well b": 86720, "uninduced reporter light, run 1, well a": 11055, "outcome": "inactive"}
{"predicted target": "AMPdeam", "amplicon": "DRSC18996", "induced reporter light, run 1, well a": 93075, "induced reporter light, run 1, well b": 1.03e5, "control promoter light, run 1, well a": 76295, "control promoter light, run 1, well b": 86015, "uninduced reporter light, run 1, well a": 7340, "outcome": "inactive"}
{"predicted target": "AMPdeam", "amplicon": "DRSC19366", "induced reporter light, run 1, well a": 1.67e5, "induced reporter light, run 1, well b": 1.46e5, "control promoter light, run 1, well a": 1.87e5, "control promoter light, run 1, well b": 1.97e5, "uninduced reporter light, run 1, well a": 9170, "outcome": "inactive"}
{"predicted target": "AMPdeam", "amplicon": "DRSC19368", "induced reporter light, run 1, well a": 1.20e5, "induced reporter light, run 1, well b": 1.23e5, "control promoter light, run 1, well a": 1.32e5, "control promoter light, run 1, well b": 1.50e5, "uninduced reporter light, run 1, well a": 17215, "outcome": "inactive"}
{"predicted target": "AMPdeam", "amplicon": "DRSC19727", "induced reporter light, run 1, well a": 1.24e5, "induced reporter light, run 1, well b": 1.20e5, "control promoter light, run 1, well a": 1.91e5, "control promoter light, run 1, well b": 1.62e5, "uninduced reporter light, run 1, well a": 17845, "outcome": "inactive"}
{"predicted target": "Mtp", "amplicon": "DRSC03216", "induced reporter light, run 1, well a": 2.21e5, "induced reporter light, run 1, well b": 2.63e5, "control promoter light, run 1, well a": 2.06e5, "control promoter light, run 1, well b": 2.26e5, "uninduced reporter light, run 1, well a": 15020, "outcome": "inactive"}
